The supplement of paper PMC8007513
Some of the results follow. Repeats are few or missing, and single values can be far off.

Test system: Saccharomyces cerevisiae BY4743
Assay: growth (OD600) with compound + IPBC relative to untreated control; higher = less growth inhibition
Conditions: compound concentration: 133 uM; IPBC concentration: 0.5 ug/ml; 20 h
Experimental: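 NMCCC compounds (133 uM) combined with IPBC (0.5 ug/ml) against Saccharomyces cerevisiae BY4743 in YPD, 96-well plates. Growth was read as OD600 at 20 h and expressed as % of the untreated control. Single pass.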

| Structure (SMILES) | growth [%] |
| --- | --- |
| Cc1ccc(CN2C(=O)c3ccccc3C2O)o1 (stereo not drawn) + CCCCNC(=O)OCC#CI [3-iodo-2-propynyl butylcarbamate (IPBC)] | 116 |
| CCCCc1ccc(CC(=O)Nc2ccc3c(c2)NC(=O)C(C)O3)cc1 (stereo not drawn) + CCCCNC(=O)OCC#CI [3-iodo-2-propynyl butylcarbamate (IPBC)] | 98.7 |
| NC(=O)c1ccc(CSc2nncn2CCc2cccs2)cc1 + CCCCNC(=O)OCC#CI [3-iodo-2-propynyl butylcarbamate (IPBC)] | 93.3 |
| CN(CCOC1=CC=CC=C1)[S](=O)(=O)\C2=C\N(C)C(=O)N(C)C2=O + CCCCNC(=O)OCC#CI [3-iodo-2-propynyl butylcarbamate (IPBC)] | 114 |
| COc1cccc(C2/C(=C(\O)OC(C)(C)C)C(C)=Nc3nnnn32)c1 (stereo not drawn) + CCCCNC(=O)OCC#CI [3-iodo-2-propynyl butylcarbamate (IPBC)] | 104 |
| CC(C)CCC(C)NC(=O)C1=CC2=C(C=C1Cl)N\3CCCCCC3=N/[S]2(=O)=O (stereo not drawn) + CCCCNC(=O)OCC#CI [3-iodo-2-propynyl butylcarbamate (IPBC)] | 107 |
| CCOc1ccc(N2C(=O)N(CC(=O)NCCC(C)C)c3ccccc3S2(=O)=O)cc1 + CCCCNC(=O)OCC#CI [3-iodo-2-propynyl butylcarbamate (IPBC)] | 98.1 |
| CCN(CC)c1ccc(C(=O)Nc2nc(C)c(SCC#N)s2)cn1 + CCCCNC(=O)OCC#CI [3-iodo-2-propynyl butylcarbamate (IPBC)] | 101 |
